These results are taken from paper PMC8209095.

No constants are given. Whether binding was seen depends on the method and setting. Binding seen in cells or lysates may run through a third protein. These calls come from enrichment with a bait or labelling near it, and not all partners need be listed.

In this experiment the target is SFB-tagged HAT domain of human OGA (C-OGA) (human). Put plainly: affinity purification with mass spectrometry; 293T cells stably expressing SFB-OGA-HAT lysed in NETN buffer; streptavidin beads, biotin elution, then S protein beads; SDS-PAGE bands analysed by mass spectrometer.

B1: endogenous NONO (protein, UniProt Q15233 1-471)
chain: MQSNKTFNLEKQNHTPRKHHQHHHQQQHHQQQQQQPPPPPIPANGQQASSQNEGLTIDLKNFRKPGEKTFTQRSRLFVGNLPPDITEEEMRKLFEKYGKAGEVFIHKDKGFGFIRLETRTLAEIAKVELDNMPLRGKQLRVRFACHSASLTVRNLPQYVSNELLEEAFSVFGQVERAVVIVDDRGRPSGKGIVEFSGKPAARKALDRCSEGSFLLTTFPRPVTVEPMDQLDDEEGLPEKLVIKNQQFHKEREQPPRFAQPGSFEYEYAMRWKALIEMEKQQQDQVDRNIKEAREKLEMEMEAARHEHQVMLMRQDLMRRQEELRRMEELHNQEVQKRKQLELRQEEERRRREEEMRRQQEEMMRRQQEGFKGTFPDAREQEIRMGQMAMGGAMGINNRGAMPPAPVPAGTPAPPGPATMMPDGTLGLTPPTTERFGQAATMEGIGAIGGTPPAFNRAAPGAEFAPNKRRRY
With B1, the binding entry was “binds”.
